Results on one molecule are retold here after publication PMC4673853.

One test concerns the target T1, Flag-TARBP2-K52R (human) (UniProt Q15633).
T1 sequence: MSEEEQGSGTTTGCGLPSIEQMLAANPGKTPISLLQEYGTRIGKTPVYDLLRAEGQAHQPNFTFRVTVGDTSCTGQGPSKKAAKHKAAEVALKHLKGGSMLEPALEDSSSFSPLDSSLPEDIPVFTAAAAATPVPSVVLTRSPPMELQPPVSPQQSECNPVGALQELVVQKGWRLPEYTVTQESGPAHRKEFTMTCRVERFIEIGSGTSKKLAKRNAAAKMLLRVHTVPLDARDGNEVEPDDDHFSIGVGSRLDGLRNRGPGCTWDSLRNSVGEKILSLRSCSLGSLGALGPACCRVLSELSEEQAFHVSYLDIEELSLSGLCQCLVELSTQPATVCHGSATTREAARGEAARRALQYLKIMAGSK
In words: co-IP; 293T cells transfected with Flag-TARBP2-WT or -K52R with or without the partner's plasmid; lysates IP with anti-Flag antibody, western blot; in Fig. 7c cells treated with 100 uM H2O2 for 3 h before harvest.

The next test concerns the target Flag-TARBP2-WT (human) (UniProt Q15633). The description is as above.

These are yes or no findings as the source states them, for the method shown. Binding seen in cells or lysates may run through a third protein. Some binding calls cover weakened binding; strength is not graded here. Tags and fused reporters may be left off the sequences shown.

B1: GFP-KSRP (protein, UniProt Q92945 1-711)
chain: MSDYSTGGPPPGPPPPAGGGGGAGGAGGGPPPGPPGAGDRGGGGPGGGGPGGGSAGGPSQPPGGGGPGIRKDAFADAVQRARQIAAKIGGDAATTVNNSTPDFGFGGQKRQLEDGDQPESKKLASQGDSISSQLGPIHPPPRTSMTEEYRVPDGMVGLIIGRGGEQINKIQQDSGCKVQISPDSGGLPERSVSLTGAPESVQKAKMMLDDIVSRGRGGPPGQFHDNANGGQNGTVQEIMIPAGKAGLVIGKGGETIKQLQERAGVKMILIQDGSQNTNVDKPLRIIGDPYKVQQACEMVMDILRERDQGGFGDRNEYGSRIGGGIDVPVPRHSVGVVIGRSGEMIKKIQNDAGVRIQFKQDDGTGPEKIAHIMGPPDRCEHAARIINDLLQSLRSGPPGPPGGPGMPPGGRGRGRGQGNWGPPGGEMTFSIPTHKCGLVIGRGGENVKAINQQTGAFVEISRQLPPNGDPNFKLFIIRGSPQQIDHAKQLIEEKIEGPLCPVGPGPGGPGPAGPMGPFNPGPFNQGPPGAPPHAGGPPPHQYPPQGWGNTYPQWQPPAPHDPSKAAAAAADPNAAWAAYYSHYYQQPPGPVPGPAPAPAAPPAQGEPPQPPPTGQSDYTKAWEEYYKKIGQQPQQPGAPPQQDYTKAWEEYYKKQAQVATGGGPGAPPGSQPDYSAAWAEYYRQQAAYYGQTPGPGGPQPPPTQQGQQQAQ
Take B1: the binding entry with Flag-TARBP2-K52R (human) and with Flag-TARBP2-WT (human) was “binds” in each case.
